The results in this text go back to the supplement of paper PMC10849652.

The chains behind the UniProt entries cited, without tags or fusion partners. Where a name states a change or a piece, a line headed by the entry shows the natural chain unless it says otherwise.
UniProt P06858: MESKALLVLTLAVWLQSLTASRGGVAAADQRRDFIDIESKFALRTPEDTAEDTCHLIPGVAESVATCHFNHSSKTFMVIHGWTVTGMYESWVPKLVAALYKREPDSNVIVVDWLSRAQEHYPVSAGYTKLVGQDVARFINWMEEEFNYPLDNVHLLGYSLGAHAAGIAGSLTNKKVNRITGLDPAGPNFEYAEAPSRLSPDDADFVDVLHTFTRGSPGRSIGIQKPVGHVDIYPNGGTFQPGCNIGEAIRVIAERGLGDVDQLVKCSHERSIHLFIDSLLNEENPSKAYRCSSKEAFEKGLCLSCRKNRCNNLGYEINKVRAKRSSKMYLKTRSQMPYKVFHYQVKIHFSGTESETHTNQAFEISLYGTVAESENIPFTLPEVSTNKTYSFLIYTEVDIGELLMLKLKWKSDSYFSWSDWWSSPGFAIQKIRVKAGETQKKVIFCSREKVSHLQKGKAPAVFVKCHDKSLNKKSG
UniProt E9PP15: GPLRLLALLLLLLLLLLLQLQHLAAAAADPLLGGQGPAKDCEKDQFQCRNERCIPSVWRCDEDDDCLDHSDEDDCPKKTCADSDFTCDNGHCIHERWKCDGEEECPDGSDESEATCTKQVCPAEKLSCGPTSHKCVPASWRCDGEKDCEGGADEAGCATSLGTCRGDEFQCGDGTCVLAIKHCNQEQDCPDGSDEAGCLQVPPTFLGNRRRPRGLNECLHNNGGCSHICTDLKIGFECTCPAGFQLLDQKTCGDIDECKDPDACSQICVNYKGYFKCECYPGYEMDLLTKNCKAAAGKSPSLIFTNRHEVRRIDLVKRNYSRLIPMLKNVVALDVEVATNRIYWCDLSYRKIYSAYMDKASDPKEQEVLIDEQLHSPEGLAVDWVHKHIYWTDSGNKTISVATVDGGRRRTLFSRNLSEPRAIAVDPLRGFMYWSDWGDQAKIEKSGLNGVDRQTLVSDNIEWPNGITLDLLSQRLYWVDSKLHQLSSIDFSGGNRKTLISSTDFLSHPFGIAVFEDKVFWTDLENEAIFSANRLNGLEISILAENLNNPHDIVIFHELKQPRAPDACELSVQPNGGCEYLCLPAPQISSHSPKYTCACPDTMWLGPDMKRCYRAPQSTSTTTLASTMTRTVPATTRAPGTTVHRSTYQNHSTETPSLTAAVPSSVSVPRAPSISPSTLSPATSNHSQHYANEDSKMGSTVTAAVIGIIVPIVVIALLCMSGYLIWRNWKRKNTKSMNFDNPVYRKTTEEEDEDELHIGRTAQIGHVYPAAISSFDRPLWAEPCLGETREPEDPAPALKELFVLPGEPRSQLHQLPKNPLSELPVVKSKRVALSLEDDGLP
UniProt Q9BT23: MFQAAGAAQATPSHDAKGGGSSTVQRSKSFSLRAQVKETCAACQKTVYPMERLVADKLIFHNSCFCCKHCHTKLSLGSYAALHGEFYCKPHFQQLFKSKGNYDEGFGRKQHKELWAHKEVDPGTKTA
UniProt Q8IWU2: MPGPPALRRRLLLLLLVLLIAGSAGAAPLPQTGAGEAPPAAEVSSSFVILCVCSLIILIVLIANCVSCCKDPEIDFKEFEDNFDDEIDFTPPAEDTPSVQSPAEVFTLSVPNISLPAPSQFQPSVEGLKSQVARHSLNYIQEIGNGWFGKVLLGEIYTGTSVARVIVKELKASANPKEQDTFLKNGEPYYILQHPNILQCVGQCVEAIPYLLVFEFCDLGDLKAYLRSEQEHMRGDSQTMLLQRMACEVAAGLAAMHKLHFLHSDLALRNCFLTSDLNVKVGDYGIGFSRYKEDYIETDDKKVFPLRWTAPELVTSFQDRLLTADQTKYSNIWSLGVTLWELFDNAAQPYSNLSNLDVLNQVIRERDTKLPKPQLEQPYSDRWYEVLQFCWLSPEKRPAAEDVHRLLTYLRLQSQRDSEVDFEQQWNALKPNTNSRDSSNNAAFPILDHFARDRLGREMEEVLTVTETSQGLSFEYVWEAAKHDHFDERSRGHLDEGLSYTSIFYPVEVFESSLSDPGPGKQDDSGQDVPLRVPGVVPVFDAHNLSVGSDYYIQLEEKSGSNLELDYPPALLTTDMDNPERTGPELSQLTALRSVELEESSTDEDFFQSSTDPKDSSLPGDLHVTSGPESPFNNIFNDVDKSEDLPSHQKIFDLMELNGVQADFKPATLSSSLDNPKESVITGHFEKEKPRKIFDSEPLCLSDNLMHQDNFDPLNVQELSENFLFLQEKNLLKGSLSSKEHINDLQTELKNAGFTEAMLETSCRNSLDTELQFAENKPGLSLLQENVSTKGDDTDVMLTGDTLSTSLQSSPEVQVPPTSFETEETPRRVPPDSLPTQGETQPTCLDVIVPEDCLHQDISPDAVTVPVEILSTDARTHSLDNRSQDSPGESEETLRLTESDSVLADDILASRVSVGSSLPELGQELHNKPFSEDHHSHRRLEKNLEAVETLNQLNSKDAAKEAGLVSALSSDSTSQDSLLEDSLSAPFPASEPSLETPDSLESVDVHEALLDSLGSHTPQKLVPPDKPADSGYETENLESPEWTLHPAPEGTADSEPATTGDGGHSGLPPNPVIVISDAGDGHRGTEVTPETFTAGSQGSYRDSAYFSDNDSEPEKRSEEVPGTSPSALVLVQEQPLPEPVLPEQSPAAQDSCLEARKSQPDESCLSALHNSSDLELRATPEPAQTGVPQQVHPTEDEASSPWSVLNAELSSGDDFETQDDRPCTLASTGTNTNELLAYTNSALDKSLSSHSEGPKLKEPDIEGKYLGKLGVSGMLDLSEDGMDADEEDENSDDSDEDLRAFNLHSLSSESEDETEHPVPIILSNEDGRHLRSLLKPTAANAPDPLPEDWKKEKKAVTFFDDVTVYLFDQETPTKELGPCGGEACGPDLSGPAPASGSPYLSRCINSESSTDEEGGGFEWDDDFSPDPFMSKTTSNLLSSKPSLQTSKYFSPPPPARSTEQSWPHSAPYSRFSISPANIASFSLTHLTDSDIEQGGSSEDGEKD
UniProt Q86VI4: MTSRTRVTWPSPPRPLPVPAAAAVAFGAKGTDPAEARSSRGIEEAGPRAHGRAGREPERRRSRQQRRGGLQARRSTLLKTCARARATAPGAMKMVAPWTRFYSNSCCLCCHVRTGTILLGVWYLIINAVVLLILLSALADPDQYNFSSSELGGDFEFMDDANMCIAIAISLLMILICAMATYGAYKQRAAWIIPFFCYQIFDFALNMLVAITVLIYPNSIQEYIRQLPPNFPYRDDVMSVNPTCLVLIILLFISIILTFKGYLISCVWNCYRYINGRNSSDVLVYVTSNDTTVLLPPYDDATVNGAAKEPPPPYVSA
UniProt Q08380: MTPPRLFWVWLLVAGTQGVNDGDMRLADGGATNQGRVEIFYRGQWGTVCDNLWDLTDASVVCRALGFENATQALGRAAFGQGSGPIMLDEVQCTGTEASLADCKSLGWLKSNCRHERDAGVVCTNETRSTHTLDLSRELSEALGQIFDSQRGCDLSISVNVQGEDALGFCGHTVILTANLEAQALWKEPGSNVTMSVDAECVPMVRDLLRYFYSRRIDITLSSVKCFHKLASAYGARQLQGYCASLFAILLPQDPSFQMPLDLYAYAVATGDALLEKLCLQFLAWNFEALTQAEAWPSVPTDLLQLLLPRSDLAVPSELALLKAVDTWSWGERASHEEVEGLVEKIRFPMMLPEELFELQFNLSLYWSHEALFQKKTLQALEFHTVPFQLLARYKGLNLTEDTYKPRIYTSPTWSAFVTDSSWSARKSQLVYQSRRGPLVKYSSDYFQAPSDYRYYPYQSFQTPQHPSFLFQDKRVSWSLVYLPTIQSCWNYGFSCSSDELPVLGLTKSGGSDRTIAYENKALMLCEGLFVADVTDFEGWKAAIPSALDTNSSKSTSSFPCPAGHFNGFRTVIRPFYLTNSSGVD
UniProt Q6P5S2: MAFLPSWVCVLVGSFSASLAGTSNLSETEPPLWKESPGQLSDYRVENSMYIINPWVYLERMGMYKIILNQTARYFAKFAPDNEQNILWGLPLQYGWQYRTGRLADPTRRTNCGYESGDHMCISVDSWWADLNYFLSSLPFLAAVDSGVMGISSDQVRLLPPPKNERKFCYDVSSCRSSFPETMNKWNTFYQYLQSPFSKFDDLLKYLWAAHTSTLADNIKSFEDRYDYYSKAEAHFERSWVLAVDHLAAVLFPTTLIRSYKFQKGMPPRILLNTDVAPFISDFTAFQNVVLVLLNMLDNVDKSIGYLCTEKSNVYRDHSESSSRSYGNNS
UniProt Q6PJG9: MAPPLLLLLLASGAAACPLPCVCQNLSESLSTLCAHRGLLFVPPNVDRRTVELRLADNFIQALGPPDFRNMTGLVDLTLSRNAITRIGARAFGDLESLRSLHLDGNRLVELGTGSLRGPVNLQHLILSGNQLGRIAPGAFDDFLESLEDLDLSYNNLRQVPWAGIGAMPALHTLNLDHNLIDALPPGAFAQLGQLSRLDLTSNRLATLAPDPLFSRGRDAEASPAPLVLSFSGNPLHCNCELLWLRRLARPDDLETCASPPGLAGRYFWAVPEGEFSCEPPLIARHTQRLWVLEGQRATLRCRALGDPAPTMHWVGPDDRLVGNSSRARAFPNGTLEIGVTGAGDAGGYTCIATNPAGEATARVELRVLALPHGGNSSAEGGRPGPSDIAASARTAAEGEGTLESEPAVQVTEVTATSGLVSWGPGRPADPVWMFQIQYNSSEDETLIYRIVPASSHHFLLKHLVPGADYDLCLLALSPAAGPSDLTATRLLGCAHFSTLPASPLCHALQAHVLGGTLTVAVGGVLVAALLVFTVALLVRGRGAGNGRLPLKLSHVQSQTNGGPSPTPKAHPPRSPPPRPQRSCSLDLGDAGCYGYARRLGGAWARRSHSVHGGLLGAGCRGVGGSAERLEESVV
UniProt Q5TKA1: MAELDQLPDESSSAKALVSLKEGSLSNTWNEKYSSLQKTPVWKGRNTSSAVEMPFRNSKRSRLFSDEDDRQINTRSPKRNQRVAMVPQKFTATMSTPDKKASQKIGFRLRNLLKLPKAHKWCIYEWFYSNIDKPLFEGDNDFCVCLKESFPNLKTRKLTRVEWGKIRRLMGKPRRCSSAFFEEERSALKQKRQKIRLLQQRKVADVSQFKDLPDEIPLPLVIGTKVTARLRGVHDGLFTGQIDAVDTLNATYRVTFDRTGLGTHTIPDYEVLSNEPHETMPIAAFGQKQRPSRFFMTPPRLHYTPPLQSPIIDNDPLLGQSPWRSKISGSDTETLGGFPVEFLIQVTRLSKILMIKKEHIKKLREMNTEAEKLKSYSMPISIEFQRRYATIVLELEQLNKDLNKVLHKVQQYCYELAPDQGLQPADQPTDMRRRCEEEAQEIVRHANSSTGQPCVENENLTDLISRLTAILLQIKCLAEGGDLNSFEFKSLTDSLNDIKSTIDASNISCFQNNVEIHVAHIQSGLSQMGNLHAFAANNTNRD

Some of the results follow.

Assay in all cases: log2 fold change, soluble protein after heating vs DMSO (PISA); higher = thermal stabilisation; K562 cells, 10 uM, 30 min; active = over 0.2 and 3.5 SD of the protein, either way, in both replicates (recomputed)
Compound in assay [1]: CC[C@@H]1C(=O)N(C)c2cnc(Nc3ccc(C(=O)NC4CCN(C)CC4)cc3OC)nc2N1C1CCCC1
An outline of the steps: (§1)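 K562 cells at 2×10^6 cells/mL were treated with 10 μM compound for 30 min. Aliquots were heated for 3 min across 48°C-58°C, pooled, and extracted in PBS with 0.5% NP-40 at 4°C; soluble protein was the supernatant after 21,000xg for 90 min. Soluble protein was quantified by TMTpro 16plex LC-MS/MS with channel sums equalised, and reported as log2 fold change in thermal stability against DMSO controls, with values from duplicates.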

Compound in assay [2]: CC[C@@H]1C(=O)N(C)c2cnc(Nc3ccc(C(=O)N[C@H]4CC[C@H](N5CCN(CC6CC6)CC5)CC4)cc3OC)nc2N1C(C)C [volasertib]
An outline of the steps:
as §1

Compound in assay [3]: CCn1c(C(=O)N(C2CC2)C2CC2)cc2c3c(ncn3C)c(Nc3cc(C)n(C)n3)nc21
An outline of the steps: as §1

Compound in assay [4]: CCn1cc(-c2ccnc3[nH]c(-c4cccc(CN(C)C)c4)cc23)c(-c2ccc(NC(=O)N(C)C)cc2)n1
An outline of the steps: as §1

Compound in assay [5]: CN(C)CC(=O)Nc1ccc2[nH]c(=O)c3ccccc3c2c1
An outline of the steps:
as §1

Compound in assay [6]: CN1C2=C(C3=C1C(=O)N(N=C3)CC4=CC(=CC=C4)N)SC(=C2)S(=O)C
The gist of the method:
as §1

Compound in assay [7]: CN1CCC(CNc2ccc3ncc(-c4cccc(OC(F)(F)F)c4)n3n2)CC1
An outline of the steps: as §1

Compound in assay [8]: CN1CCN(CCOc2cc(OC3CCOCC3)c3c(Nc4c(Cl)ccc5c4OCO5)ncnc3c2)CC1 [saracatinib]
An outline of the steps:
as §1

Compound in assay [9]: CN1CCN(c2nc(C3=C(c4c[nH]c5ccccc45)C(=O)NC3=O)c3ccccc3n2)CC1 [sotrastaurin]
The gist of the method: as §1

Compound in assay [10]: CN1CC[C@H](c2c(O)cc(O)c3c(=O)cc(-c4ccccc4Cl)oc23)[C@H](O)C1 [alvocidib]
An outline of the steps: as §1

Compound in assay [11]: CN1CCc2c(c3ccccc3n2Cc2ccc(C(=O)NO)cc2)C1 [Tubastatin A]
The gist of the method: as §1

Compound in assay [12]: CNC(=O)C1=CC=CC=C1NC2=NC(=NC=C2Cl)NC3=C(C=C(C=C3)N4CCOCC4)OC
An outline of the steps: as §1

Compound in assay [13]: CNC(=O)c1ccc(Nc2ncc(C(F)(F)F)c(NCc3nccnc3N(C)S(C)(=O)=O)n2)cc1 [defactinib]
An outline of the steps:
as §1

Compound in assay [14]: CNCc1ccc(-c2[nH]c3cc(F)cc4c3c2CCNC4=O)cc1 [rucaparib]
An outline of the steps: as §1

Compound in assay [15]: CNc1nc(-c2ccc3c(N)n[nH]c3c2)cc(N2C[C@@H](C(=O)NC3CCCCC3)CC[C@H]2C)n1
An outline of the steps: as §1

Compound in assay [16]: COC(=O)N[C@@H](C)CNc1nccc(-c2cn(C(C)C)nc2-c2cc(Cl)cc(NS(C)(=O)=O)c2F)n1 [encorafenib]
The gist of the method:
as §1

Compound in assay [17]: COC(=O)[C@H](CCSC)NC(=O)C1=C(C=C(C=C1)NC[C@H](CS)N)C2=CC=CC=C2
An outline of the steps: as §1

Compound in assay [18]: CC[C@H](C)[C@@H](C(=O)N[C@@H]([C@@H](C)O)C(=O)N[C@@H](CC(C)C)C(=O)[C@]1(CO1)C)NC(=O)[C@H]([C@@H](C)CC)N(C)C(=O)C [epoxomicin]
The gist of the method:
as §1

Compound in assay [19]: CN(CCOC1=CC=C(C=C1)C[C@H]2C(=O)NC(=O)S2)C3=CC=CC=N3 (racemic) [rosiglitazone]
An outline of the steps:
as §1

Compound in assay [20]: CC[C@H](C)N1C=C(C2=C(C=C(C=C21)C3=CN=C(C=C3)N4CCNCC4)C(=O)NCC5=C(C=C(NC5=O)C)C)C
An outline of the steps:
as §1

As to LPL (UniProt P06858), the log2 fold change is inactive: 0.289 in [1]; inactive: 0.006 in assay [2]; inactive: -0.188 in assay [3]; inactive: 0.041 in assay [4]; inactive: -0.093 in assay [5]; inactive: -0.003 in assay [6]. In addition, the log2 fold change in assay [7] was inactive: 0.085; in assay [8], inactive: -0.148; in assay [9], inactive: 0.075; in assay [10], inactive: -0.006; in assay [11], inactive: 0.447; in assay [12] it was inactive: -0.036. For the same target, the log2 fold change was inactive: -0.11 in assay [13]; inactive: 0.189 in [14]; inactive: 0.05 in assay [15]; inactive: -0.252 in assay [16]; inactive: 0 in assay [17].

As to LRP8 (UniProt E9PP15), the log2 fold change is inactive: -0.154 in assay [1]; inactive: 0.031 in assay [2]; inactive: 0 in assay [18]; inactive: -0.041 in assay [3]; inactive: -0.036 in assay [5]; inactive: -0.014 in assay [19]. The log2 fold change was inactive: -0.126 in assay [6]; inactive: 0.019 in assay [8]; inactive: 0.214 in [9]; inactive: 0.021 in [10]; inactive: -0.057 in assay [11]; inactive: -0.145 in assay [12]. The log2 fold change in [13] is inactive: -0.047; in assay [14], inactive: 0.063; in assay [15], inactive: -0.025; in [16] it was inactive: -0.088; in assay [17], inactive: -0.151.

LIMD2 (UniProt Q9BT23): the log2 fold change is inactive: 0.067 in assay [1]; inactive: -0.017 in assay [2]; inactive: -0.068 in assay [3]; inactive: 0.136 in [9]; inactive: 0.113 in assay [10]; inactive: 0.016 in assay [11]. For the same target, the figures for the log2 fold change in assay [12], in assay [14] and in assay [16] were inactive: -0.058, inactive: -0.109 and inactive: 0.058, respectively.

Turning to LMTK2 (UniProt Q8IWU2), the log2 fold change was inactive: 0.05 in [2]; inactive: 0.052 in [18]; inactive: 0.086 in assay [3]; inactive: -0.07 in [4]; inactive: -0.071 in assay [5]; inactive: 0.037 in assay [19]. Besides, the log2 fold change in [6] was inactive: 0.147; in assay [7], inactive: -0.133; in assay [8], inactive: 0.13; in assay [9], inactive: -0.037; in [10], inactive: -0.036; in assay [11], inactive: -0.001. Besides, the log2 fold change in assay [12] is inactive: -0.014; in assay [13], inactive: -0.076; in assay [15] it was inactive: 0.116; in [17] it was inactive: 0.044.

Take LAPTM4B (UniProt Q86VI4): the log2 fold change in [1] was inactive: 0.063; in [4] it was inactive: 0.216; in assay [7], active: 0.968; in [9], inactive: -0.194; in assay [12], inactive: 0.007; in [14] it was inactive: 0. Moreover, the log2 fold change in assay [16] was inactive: 0.009.

Regarding LGALS3BP (UniProt Q08380), the log2 fold change was inactive: 0.166 in [1]; inactive: -0.091 in assay [20]; inactive: -0.005 in assay [18]; inactive: 0.007 in assay [14]; inactive: -0.06 in assay [16].

As for LARP1B, A0A3B3ISF0, the log2 fold change is inactive: -0.127 in assay [1]; inactive: 0.086 in assay [2]; inactive: 0.201 in assay [4]; inactive: 0.155 in assay [7]; inactive: 0.037 in [9]; inactive: 0.252 in [14]. For the same target, the log2 fold change in [16] is inactive: 0.218.

As to LEG1 (UniProt Q6P5S2), the log2 fold change is inactive: -0.763 in [2]; inactive: 0.079 in assay [20]; inactive: -0.085 in [4]; inactive: 0.19 in assay [5]; inactive: -0.001 in assay [19]; inactive: -0.229 in [6]. For the same target, the log2 fold change is inactive: -0.042 in assay [7]; inactive: -0.223 in [8]; inactive: -0.107 in [9]; inactive: 0.103 in [10]; inactive: -0.004 in assay [13]; inactive: -0.003 in [15]. Moreover, in [17], the log2 fold change is inactive: -0.071.

For LRFN4 (UniProt Q6PJG9), the log2 fold change in [2] was inactive: -0.103; in [18], inactive: 0.034; in assay [3] it was inactive: 0.123; in assay [4] it was inactive: 0.003; in assay [19], inactive: -0.091; in assay [6] it was inactive: -0.075. Moreover, the log2 fold change in assay [7] was inactive: 0.176; in assay [8] it was inactive: 0.102; in assay [9], inactive: 0.083; in assay [10], inactive: -0.157; in assay [11], inactive: 0.103; in [12], inactive: -0.026. Also, in assay [15], the log2 fold change was inactive: -0.007.

Consider LIN9 isoform 2 (UniProt Q5TKA1), for which the log2 fold change in [1] is inactive: -0.113; in [18] it was inactive: 0.037; in [5] it was inactive: 0.205; in [19] it was inactive: -0.041; in assay [9], inactive: -0.207; in [10], inactive: -0.017. In addition, the log2 fold change is inactive: -0.132 in assay [11]; inactive: -0.05 in assay [13]; inactive: -0.219 in assay [14]; inactive: 0.205 in assay [16]; inactive: -0.204 in assay [17].
